Where a chain is given by its changes, count along the chain named. Results are given in words; binding and its absence hold for the method and conditions named. Some binding calls cover weakened binding; strength is not graded here.

Chains of the proteins cited; added tags and fusions are not shown. Lines headed by an entry give the natural chain unless they say otherwise; changes in a name come on top.
UniProt P00738: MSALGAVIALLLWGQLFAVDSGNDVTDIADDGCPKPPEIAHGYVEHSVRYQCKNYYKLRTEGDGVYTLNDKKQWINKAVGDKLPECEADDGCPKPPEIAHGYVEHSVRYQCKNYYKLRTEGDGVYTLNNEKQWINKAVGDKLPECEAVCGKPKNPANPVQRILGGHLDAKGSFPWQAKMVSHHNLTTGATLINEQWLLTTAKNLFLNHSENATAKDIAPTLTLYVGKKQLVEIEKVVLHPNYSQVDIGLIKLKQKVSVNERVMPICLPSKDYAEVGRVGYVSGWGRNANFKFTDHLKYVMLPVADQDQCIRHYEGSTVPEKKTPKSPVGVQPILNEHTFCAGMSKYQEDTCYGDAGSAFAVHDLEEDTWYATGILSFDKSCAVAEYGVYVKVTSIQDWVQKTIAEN

B1: SEQ ID NO. 63 (designed binder)
ligand: MVDAKFDKELEEARAEIERLPNLTELQRREFIKFLRCDPSQSATLLAIAKTWNDKQAPKAAAHHHHHHC
B2: SEQ ID NO. 112 (designed binder)
ligand: MVDAKFDKELEEARAEIERPPNLTEEQRRNFIQALRDDPSSSAGLLALAKHWNDKQAPKAAAHHHHHHC
B3: SEQ ID NO. 48 (designed binder)
ligand: B2 ligand with P20L, F31L, Q33L
B4: SEQ ID NO. 58 (designed binder)
ligand: B2 ligand with P20L, A34T
B5: SEQ ID NO. 60 (designed binder)
ligand: B2 ligand with P20L, F31L, P39S
B6: SEQ ID NO. 62 (designed binder)
ligand: B2 ligand with P20L, Q27R
B7: SEQ ID NO. 46 (designed binder)
ligand: B2 ligand with P20L, R29H, N30S, D37K, S41D, G44S, L48V, H51N
B8: SEQ ID NO. 65 (designed binder)
ligand: B2 ligand with I17T, P20L, A49P, K50E
B9: SEQ ID NO. 50 (designed binder)
ligand: B2 ligand with E11D, P20L, I32F
B10: SEQ ID NO. 52 (designed binder)
ligand: B2 ligand with P20L, Q27H
B11: SEQ ID NO. 97 (designed binder)
ligand: MVDAKFDKELEEARAEIERLPNLTEHQRRNFIHALRHDPSDSAALLAIAKAWNDRQAPKAAAHHHHHHC
B12: SEQ ID NO. 100 (designed binder)
ligand: B11 ligand with H26Q, N30H, A44P, R55K
B13: SEQ ID NO. 72 (designed binder)
ligand: B11 ligand with H26Q, H37Q, A51S
B14: SEQ ID NO. 104 (designed binder)
ligand: B11 ligand with H37R, A44S, A51N, R55K
B15: SEQ ID NO. 106 (designed binder)
ligand: B11 ligand with H26Q, H37K, A44S, A51N, R55K
B16: SEQ ID NO. 61 (designed binder)
ligand: B1 ligand with L26E, E30N, F31L, K33Q, F34A, C37G, T51N
B17: SEQ ID NO. 103 (designed binder)
ligand: B11 ligand with H33Q, H37K, A44S, A51N, R55K
B18: SEQ ID NO. 73 (designed binder)
ligand: B11 ligand with H26Q, H37Q, K50R, N53Y
B19: SEQ ID NO. 66 (designed binder)
ligand: B11 ligand with A15V, H26E, F31L, H33Q, H37K, A44S, A51N, R55K
B20: SEQ ID NO. 111 (designed binder)
ligand: B11 ligand with H33Q, H37K, A44S, A51N, N53D, R55K
B21: SEQ ID NO. 70 (designed binder)
ligand: B11 ligand with H26Q, R36H, H37Q, W52R
B22: SEQ ID NO. 57 (designed binder)
ligand: B2 ligand with P20L, L35P, D37K, S41D, G44S, H51N
B23: SEQ ID NO. 64 (designed binder)
ligand: B11 ligand with P21Q, H26E, F31L, H33Q, H37E, A44S, A51N, R55K
B24: SEQ ID NO. 115 (designed binder)
ligand: B11 ligand with E25V, H26E, H33Q, H37K, A44S, A51N, R55K
B25: SEQ ID NO. 54 (designed binder)
ligand: B1 ligand with L26E, C37G, Q41D, T44S, T51N
B26: SEQ ID NO. 53 (designed binder)
ligand: B11 ligand with H26E, Q27L, H33Q, H37K, A44S, A51N, R55K
B27: SEQ ID NO. 44 (designed binder)
ligand: B11 ligand with H26E, F31L, H33Q, H37K, A44S, A51N, R55K
B28: SEQ ID NO. 47 (designed binder)
ligand: B11 ligand with H26E, H33Q, L35Q, H37K, A44S, A47G, A51N, R55K
B29: SEQ ID NO. 114 (designed binder)
ligand: B11 ligand with E25G, A44P, R55H
B30: SEQ ID NO. 74 (designed binder)
ligand: B11 ligand with H26Q, H37Q, P39Q
B31: SEQ ID NO. 109 (designed binder)
ligand: B11 ligand with E18K, H33Q, H37K, A44S, A51N, R55K
B32: SEQ ID NO. 98 (designed binder)
ligand: B11 ligand with H37Q
B33: SEQ ID NO. 116 (designed binder)
ligand: B11 ligand with H26E, H33Q, H37K, S42A, A44S, A51N, R55K
B34: SEQ ID NO. 51 (designed binder)
ligand: B11 ligand with N22D, H26E, H33Q, H37K, A44S, A49V, A51N, R55K
B35: SEQ ID NO. 59 (designed binder)
ligand: B11 ligand with H26E, F31I, H33R, H37K, A44S, A51N, R55K
B36: SEQ ID NO. 107 (designed binder)
ligand: B11 ligand with H26Q, H33Q, H37K, A44S, A51N, R55K
B37: SEQ ID NO. 113 (designed binder)
ligand: B11 ligand with R19H, H37K, A44S, A51N, R55K
B38: SEQ ID NO. 71 (designed binder)
ligand: B11 ligand with H26Q, H37Q, N53R
B39: SEQ ID NO. 49 (designed binder)
ligand: B1 ligand with C37G, Q41D, T44S, T51N
B40: SEQ ID NO. 45 (designed binder)
ligand: B2 ligand with P20L
B41: SEQ ID NO. 101 (designed binder)
ligand: B11 ligand with A44S, A51N, R55K, Q56R
B42: SEQ ID NO. 99 (designed binder)
ligand: B11 ligand with H26Q, H33F
B43: SEQ ID NO. 55 (designed binder)
ligand: B2 ligand with P20L, D37K, S41D, G44Y, L48I
B44: SEQ ID NO. 108 (designed binder)
ligand: B11 ligand with H37Q, A44S, A51N, R55K
B45: SEQ ID NO. 110 (designed binder)
ligand: B2 ligand with P20L
B46: SEQ ID NO. 105 (designed binder)
ligand: B11 ligand with H26Q, A44S, A51N, R55K
B47: SEQ ID NO. 68 (designed binder)
ligand: B11 ligand with R19G, H26Q, H37Q, N53D
B48: SEQ ID NO. 56 (designed binder)
ligand: B2 ligand with P20L, D37N
B49: SEQ ID NO. 102 (designed binder)
ligand: B11 ligand with A44S, A51N, R55K, H68R
B50: SEQ ID NO. 69 (designed binder)
ligand: B11 ligand with H26Q, Q27L, H37Q, K50R, N53Y
B51: SEQ ID NO. 67 (designed binder)
ligand: MVDAKFDKELKEARAEIERLPNLTEEQRRNLIQALRKDPSDSASLLAIAKNWNDKQAPKAAAHHHHHRL
B52: SEQ ID NO. 123 (designed binder)
ligand: MVDAKFDKELEEARAEIERLPNLTEHQRRYFIFALRDDPSKSALLLAAAKRHNDEQAPKVDAKFDKELEEARAEIERLPNLTEHQRRYFIFALRDDPSKSALLLAAAKRHNDEQAPKVDAKFDKELEEARAEIERLPNLTEHQRRYFIFALRDDPSKSALLLAAAKRHNDEQAPKAAAHHHHHHC

This assay concerns the target Haptoglobin protein (UniProt P00738). Nature of the assay: equilibrium batch binding to ligand-conjugated resin, 1.5 mg/mL haptoglobin, 60 min, A280 of unbound.
Take B1: the binding entry is recorded as “binds”.

As for B2, the binding result is recorded as “binds”.

In the case of B3, the binding entry is listed as “binds”.

Regarding B4, the binding result is given as “binds”.

With B5, the binding entry is recorded as “binds”.

Regarding B6, the binding result was “binds”.

Turning to B7, the binding result is “binds”.

With B8, the binding result was “binds”.

Consider B9, for which the binding entry is reported as “binds”.

Regarding B10, the binding result is on record as “binds”.

In the case of B11, the binding entry is “binds”.

Consider B12, for which the binding entry is on record as “binds”.

On to B13, for which the binding result is “binds”.

On to B14, for which the binding result is on record as “binds”.

As for B15, the binding entry is given as “binds”.

Turning to B16, the binding entry is reported as “binds”.

On to B17, for which the binding entry is reported as “binds”.

As for B18, the binding entry was “binds”.

On to B19, for which the binding entry was “binds”.

For the molecule B20, the binding result is “binds”.

With B21, the binding result is recorded as “binds”.

Take B22: the binding entry was “binds”.

Take B23: the binding result is recorded as “binds”.

Turning to B24, the binding result was “binds”.

In the case of B25, the binding result is given as “binds”.

Consider B26, for which the binding entry is “binds”.

Take B27: the binding result is reported as “binds”.

On to B28, for which the binding result is “binds”.

For the molecule B29, the binding result was “binds”.

Consider B30, for which the binding entry is on record as “binds”.

For the molecule B31, the binding result is “binds”.

For B32, the binding result is “binds”.

B33: the binding result is on record as “binds”.

For B34, the binding result was “binds”.

Take B35: the binding result is “binds”.

For B36, the binding entry is recorded as “binds”.

On to B37, for which the binding entry is “binds”.

In the case of B38, the binding result is listed as “binds”.

As for B39, the binding entry is given as “binds”.

For B40, the binding result is listed as “binds”.

Regarding B41, the binding entry is “binds”.

Consider B42, for which the binding result is on record as “binds”.

On to B43, for which the binding result is “binds”.

Take B44: the binding result is reported as “binds”.

With B45, the binding entry is “binds”.

In the case of B46, the binding result was “binds”.

On to B47, for which the binding result is “binds”.

Regarding B48, the binding entry is on record as “binds”.

For the molecule B49, the binding result was “binds”.

B50: the binding result is “binds”.

Take B51: the binding result is listed as “binds”.

B52: the binding result was “binds”.

These data come from patent US20260200997A1, “AFFINITY AGENTS” (Repligen Corporation, priority 2022, published 2026).
